Data published in paper PMC3713262.
Results are given in words; binding and its absence hold for the method and conditions named. Binding seen in cells or lysates may run through a third protein. Some entries that bind do so weakly or less than the wild type.

Chains of the proteins cited; added tags and fusions are not shown. Lines headed by an entry give the natural chain unless they say otherwise; changes in a name come on top.
UniProt P40692: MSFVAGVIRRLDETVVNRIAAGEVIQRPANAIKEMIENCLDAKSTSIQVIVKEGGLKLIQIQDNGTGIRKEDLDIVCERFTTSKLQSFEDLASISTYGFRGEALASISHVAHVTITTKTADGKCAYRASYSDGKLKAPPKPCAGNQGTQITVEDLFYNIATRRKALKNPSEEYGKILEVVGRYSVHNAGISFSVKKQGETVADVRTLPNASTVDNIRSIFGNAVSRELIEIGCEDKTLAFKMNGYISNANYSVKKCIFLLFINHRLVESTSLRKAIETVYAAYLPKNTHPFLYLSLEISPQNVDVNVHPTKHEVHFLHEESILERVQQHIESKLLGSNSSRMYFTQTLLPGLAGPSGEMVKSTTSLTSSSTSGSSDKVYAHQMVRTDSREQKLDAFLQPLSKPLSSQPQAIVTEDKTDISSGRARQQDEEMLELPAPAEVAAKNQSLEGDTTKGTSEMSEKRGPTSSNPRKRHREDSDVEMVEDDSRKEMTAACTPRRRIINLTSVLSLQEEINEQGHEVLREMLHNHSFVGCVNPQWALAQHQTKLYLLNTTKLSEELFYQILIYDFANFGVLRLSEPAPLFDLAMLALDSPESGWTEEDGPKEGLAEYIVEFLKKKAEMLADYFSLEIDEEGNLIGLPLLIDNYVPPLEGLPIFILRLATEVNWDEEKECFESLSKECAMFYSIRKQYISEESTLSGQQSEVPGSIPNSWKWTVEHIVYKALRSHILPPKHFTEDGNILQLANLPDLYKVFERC

What was measured:
[1] = target: T1, FANCJ protein (human (endogenous in MKN45)) (UniProt Q9BX63); test: co-IP; MKN45 cells treated with 10 μM 5FU for 24 h; lysate in CelLytic M, anti-FANCJ antibody 2 h at 4 °C, Protein A magnetic beads; western blot for MLH1 and PMS2
T1 sequence: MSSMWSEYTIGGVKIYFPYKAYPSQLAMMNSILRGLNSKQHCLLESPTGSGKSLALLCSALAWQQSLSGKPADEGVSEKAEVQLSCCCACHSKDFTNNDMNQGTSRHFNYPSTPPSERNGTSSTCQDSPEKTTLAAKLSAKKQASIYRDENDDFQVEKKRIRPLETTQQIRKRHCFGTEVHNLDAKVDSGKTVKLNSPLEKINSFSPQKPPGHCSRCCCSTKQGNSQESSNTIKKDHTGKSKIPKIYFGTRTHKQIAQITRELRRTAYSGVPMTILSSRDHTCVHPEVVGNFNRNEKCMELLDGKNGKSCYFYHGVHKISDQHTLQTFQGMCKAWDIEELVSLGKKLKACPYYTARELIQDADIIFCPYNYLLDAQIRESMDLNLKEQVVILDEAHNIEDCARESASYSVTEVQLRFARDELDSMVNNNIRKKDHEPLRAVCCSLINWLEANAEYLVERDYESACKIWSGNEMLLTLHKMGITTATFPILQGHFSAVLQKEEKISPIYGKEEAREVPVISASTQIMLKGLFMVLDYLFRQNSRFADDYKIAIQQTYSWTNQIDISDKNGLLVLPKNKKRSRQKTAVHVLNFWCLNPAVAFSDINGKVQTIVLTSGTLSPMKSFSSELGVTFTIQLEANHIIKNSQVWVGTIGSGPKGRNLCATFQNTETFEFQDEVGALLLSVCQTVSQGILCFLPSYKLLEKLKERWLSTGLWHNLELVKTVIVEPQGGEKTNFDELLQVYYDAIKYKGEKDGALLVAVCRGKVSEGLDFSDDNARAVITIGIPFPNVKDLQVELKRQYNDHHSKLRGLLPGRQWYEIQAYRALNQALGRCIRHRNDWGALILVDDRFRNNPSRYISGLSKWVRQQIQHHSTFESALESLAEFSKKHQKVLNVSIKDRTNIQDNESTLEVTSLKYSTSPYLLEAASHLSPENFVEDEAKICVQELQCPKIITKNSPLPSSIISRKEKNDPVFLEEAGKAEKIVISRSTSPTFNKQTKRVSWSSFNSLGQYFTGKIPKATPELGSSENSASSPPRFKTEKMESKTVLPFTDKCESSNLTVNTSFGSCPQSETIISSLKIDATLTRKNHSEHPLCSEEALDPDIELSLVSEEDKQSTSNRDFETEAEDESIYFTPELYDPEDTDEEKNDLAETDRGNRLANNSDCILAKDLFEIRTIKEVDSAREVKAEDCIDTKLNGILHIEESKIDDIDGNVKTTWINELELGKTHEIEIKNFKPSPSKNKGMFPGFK

[2] = target: T1, FANCJ protein (human (endogenous in MKN45)); test: co-IP; MKN45 cells treated with 1 μM oxaliplatin for 24 h (10 μM 5FU plus 1 μM oxaliplatin also run); lysate in CelLytic M, anti-FANCJ antibody 2 h at 4 °C, Protein A magnetic beads; western blot for MLH1 and PMS2

For “mismatch repair protein complex MLH1-PMS2 (MutLα) (from UniProt P40692 1-756; P54278 1-862)”, the binding [1] was “binds weakly” and the binding [2] was “binds”.
